PubChem BioAssay AID504808 – Drosophila RNAi Screening Center, 2011
Purpose: 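Fly genes required to hold E2F transcription in check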 (primary screen). Cells: Drosophila S2 cells. Reagents: long dsRNA against Drosophila genes. Read-out: 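Dual luciferase plate measurements; E2F-specific signal taken as firefly over Renilla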. Scale: E2F firefly: higher = more E2F reporter activity; Renilla normaliser: higher = more normaliser reporter signal. Rule for the call: 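Called active if the normalised E2F reporter went up by over 50%; the cutoff is arbitrary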.
The screen tested about 21,000 reagents; this is an unselected part of those with a known target gene and a result. In the full data, 18 (0.084%) were called active. 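Raw counts without plate normalisation, one of two replicates; the ratio scores behind the calls were not deposited.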 Unmarked entries are inactive. Reagents against one gene are numbered here. Names joined by + are all predicted targets of the reagent. Not stated in the record: the amount of reagent, the time to read-out.

gene,reagent,"E2F firefly, rep 1","Renilla normaliser, rep 1"
eys,1,1.12e5,4755
eys,2,1.60e5,5529
eys,3,1.56e5,5368
eys,4,94705,3385
TwdlM,1,96360,5814
CG1304,1,1.33e5,6755
CG13837,1,98275,5352
Cpr92F,1,1.15e5,7032
lush,1,1.39e5,7270
Cchl,1,71815,2882
hui,1,2935,187
Pkn,1,2967,166
Pkn,2,1.51e5,5105
ND-B14.5A,1,1.21e5,5774
CG31743 + CG34313,1,87709,3428
CG31743 + CG34313,2,1.06e5,4131
Ack,1,95542,3964
mtm,1,81810,3534
mia,1,73139,3918
Lnpk,1,3484,277
CG4409,1,1.40e5,4397
CG43740,1,69675,5614
jp,1,78691,3236
jp,2,1.22e5,4868
CG10628,1,98508,4345
Mat89Ba,1,75397,3488
CG42271,1,7919,760
CG5693,1,1.09e5,4135
COX7A,1,1.35e5,6364
UBL3,1,2.24e5,7306
CG31321,1,90229,2772
CG14147,1,1.53e5,7239
CG15408,1,1.57e5,5538
Yeti,1,1.36e5 (active),2867
CG12402,1,1.05e5,5950
CG7094,1,1.11e5,4512
CG14881,1,1.03e5,5660
Polr2J,1,1.10e5,5270
Cog1,1,74202,3474
CG16798,1,1.03e5,4400
Cyp6d4,1,74231,3244
CG14326,1,99041,5421
CG14036,1,1.55e5,5113
CG12674,1,1.58e5,6685
CG30287,1,1.14e5,4586
IleRS-m,1,1.49e5,7447

The list goes on; the last 3 above are carried over.
gene,reagent,"E2F firefly, rep 1","Renilla normaliser, rep 1"
CG12674,1,1.58e5,6685
CG30287,1,1.14e5,4586
IleRS-m,1,1.49e5,7447
CG5250,1,1.58e5,8288
Ir67a,1,1.39e5,7740
CG14621,1,1.31e5,6955
CSN1a,1,85673,3973
CG14823,1,66871,3739
CG7841,1,1.56e5,7623
alpha-Man-Ia,1,64865,2243
alpha-Man-Ia,2,1.33e5,6025
alpha-Man-Ia,3,1.28e5,4957
alpha-Man-Ia,4,1.06e5,5922
CG10984,1,74990,3191
nAChRbeta3,1,76226,3133
Rad23,1,1738,888
CG33489,1,87164,5117
witty,1,1.48e5,5042
CG33695 + cana,1,1.01e5,7524
CG33695 + cana,2,1.52e5,5171
gwl,1,79836,3341
mthl15,1,1.43e5,7445
TBC1D23,1,1.62e5,5368
RpS24,1,73909,3702
CG10589,1,1.41e5,6426
RpS8,1,55421,6242
PDZ-GEF,1,1.50e5,4693
cerv,1,1.56e5,7077
Dic4,1,1.61e5,7249
CG13876,1,94283,4519
Nle,1,1.70e5,5202
VhaAC45RP,1,50171,3481
Irc,1,63165,3802
PQBP1,1,63005,2765
Osi16,1,1.22e5,5839
drd,1,1.60e5,6044
sxc,1,1.08e5,4819
CG16952,1,1.45e5,6596
CG6432,1,56648,3354
CG12278,1,96470,6917
Ric,1,1.50e5,4860
